Record: PubChem BioAssay AID1259424 (University of Nebraska Medical Center, 2018)

Aim: 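Rank knockdowns across the genome by resemblance to the KSR1 depletion profile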 (primary screen)
Cell system: human HCT116 colon cancer cells
Knock-down reagent: siRNA pool against human genes, 50 nM
Measured: 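Log2 levels of six mRNAs (branched-DNA multiplex), adjusted by two reference genes and the non-targeting median, then scored against the average KSR1 knockdown pattern as Pearson r and euclidean distance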
Reading the numbers: mean correlation with KSR1 profile: higher = expression change more like KSR1 knockdown
Here is an unselected part of about 14,000 reagents. 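Higher correlation or smaller distance means closer resemblance to KSR1 loss; control wells, including KSR1 knockdowns, recur on many plates.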 Not all columns of the deposit are shown. Reagent sequences are not shown. Not stated in the record: the time to read-out.

HPS6
- mean correlation with KSR1 profile: -0.504

SERPINA6
- mean correlation with KSR1 profile: 0.695

POGK
- mean correlation with KSR1 profile: -0.935

COMMD5
- mean correlation with KSR1 profile: 0.0346

2 of these entries in another layout:
{"gene": "POGK", "mean correlation with KSR1 profile": -0.935}
{"gene": "COMMD5", "mean correlation with KSR1 profile": 0.0346}

The results go on.
SLC2A3
- mean correlation with KSR1 profile: -0.119

POLR3D
- mean correlation with KSR1 profile: 0.281

CEP126
- mean correlation with KSR1 profile: 0.43

ZNF75A
- mean correlation with KSR1 profile: 0.572

TTC19
- mean correlation with KSR1 profile: 0.105

TRMT9B
- mean correlation with KSR1 profile: -0.358

EGF
- mean correlation with KSR1 profile: -0.126

CMTR2
- mean correlation with KSR1 profile: 0.271
